Taken from: PubChem BioAssay AID504784 (Drosophila RNAi Screening Center, 2011)
Assay: 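Fly genes whose silencing alters how much lipid cells keep in droplets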 (primary screen). Cells: Drosophila Kc167 embryonic cells. Knock-down reagent: long dsRNA against Drosophila genes, about 250 ng dsRNA per well. Duration: 4 days. Conditions: cells fed 400 µM oleic acid bound to BSA. Measured: 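Microscope images give a droplet-to-nucleus area ratio, taken as log and converted to a screen-wide B-score; higher values mean greater lipid storage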. Reading the numbers: droplet/nuclear area B-score: higher = more stored lipid (overstorage).
The deposit covers about 17,000 reagents; below is an unselected part of those with a known target gene and a result. 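Each column is one replicate's B-score; the combined score over replicates was not deposited, so single values may mislead.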 Names joined by + are all predicted targets of the reagent. Not all columns of the deposit are shown.

Silencing of mod(mdg4) + pre-mod(mdg4)-U [DRSC13476] resulted in: droplet/nuclear area B-score, replicate 1 = -0.918.
Depletion of TpnC25D [DRSC02965] resulted in: droplet/nuclear area B-score, replicate 1 = -0.415.
Silencing of CG5107 [DRSC15716] came out at: droplet/nuclear area B-score, replicate 1 = 0.705.
After knock-down of grau [DRSC04691], the screen gave droplet/nuclear area B-score, replicate 1 = 4.73.
RpL10Ab [DRSC10798] gave droplet/nuclear area B-score, replicate 1 = 3.18.
Silencing of Cht9 [DRSC04079] came out at: droplet/nuclear area B-score, replicate 1 = 1.12.
Depletion of CG10353 [DRSC19354] came out at: droplet/nuclear area B-score, replicate 1 = 1.48.
For pip [DRSC11382] the deposit lists droplet/nuclear area B-score, replicate 1 = 0.187.
After knock-down of CG7407 [DRSC11824], the record shows droplet/nuclear area B-score, replicate 1 = -0.248.
For Als2 [DRSC11806] the deposit lists droplet/nuclear area B-score, replicate 1 = 0.396.
Depletion of Or22c [DRSC00766] came out at: droplet/nuclear area B-score, replicate 1 = 0.49.
After knock-down of CG5455 [DRSC15805], the record shows droplet/nuclear area B-score, replicate 1 = -2.92.
Qsox1 [DRSC06878] gave droplet/nuclear area B-score, replicate 1 = -0.798.
Against KdelR [DRSC03353], the values are droplet/nuclear area B-score, replicate 1 = 0.551.
Silencing of pain [DRSC04273] came out at: droplet/nuclear area B-score, replicate 1 = -0.044.
mRpL38 [DRSC19734] gave droplet/nuclear area B-score, replicate 1 = 2.01.
With knock-down of CG30095 [DRSC07175], the screen gave droplet/nuclear area B-score, replicate 1 = 0.0762.
Silencing of Wdr92 [DRSC10187] resulted in: droplet/nuclear area B-score, replicate 1 = 0.466.
Rbf [DRSC18704] gave droplet/nuclear area B-score, replicate 1 = -1.37.
With knock-down of Cyp6t3 [DRSC07388] the results were droplet/nuclear area B-score, replicate 1 = 0.0106.
With knock-down of Gug [DRSC11179] the results were droplet/nuclear area B-score, replicate 1 = 0.0179.
Silencing of Cpr62Bb [DRSC08404] gave: droplet/nuclear area B-score, replicate 1 = 1.47.
CG17666 [DRSC10276] scored droplet/nuclear area B-score, replicate 1 = -0.423.
After knock-down of CG15278 [DRSC02481], the record shows droplet/nuclear area B-score, replicate 1 = 0.946.
With knock-down of Eglp4 [DRSC04438] the results were droplet/nuclear area B-score, replicate 1 = 1.1.
Depletion of SIFaR [DRSC13467] resulted in: droplet/nuclear area B-score, replicate 1 = -0.563.
For SIFaR [DRSC14266] the deposit lists droplet/nuclear area B-score, replicate 1 = -0.199.
SkpF + CG5357 (retired record) [DRSC04120] gave droplet/nuclear area B-score, replicate 1 = 1.31.
With knock-down of Polr3K + Tcs1 [DRSC05988], the record shows droplet/nuclear area B-score, replicate 1 = 2.17.
Against CG13601 [DRSC14604] the deposit lists droplet/nuclear area B-score, replicate 1 = 7.21.
For CG8891 [DRSC03120], the values are droplet/nuclear area B-score, replicate 1 = -2.74.
After knock-down of CG17239 [DRSC00492], the screen gave droplet/nuclear area B-score, replicate 1 = -0.954.
Silencing of futsch [DRSC17688] came out at: droplet/nuclear area B-score, replicate 1 = -2.85.
After knock-down of futsch [DRSC17949], the screen gave droplet/nuclear area B-score, replicate 1 = -0.196.
With knock-down of futsch [DRSC17952], the record shows droplet/nuclear area B-score, replicate 1 = 0.0109.
Against futsch [DRSC18543], the entry reads droplet/nuclear area B-score, replicate 1 = -0.0151.
GstE5 [DRSC06675] scored droplet/nuclear area B-score, replicate 1 = -1.11.
CG33128 [DRSC00294] gave droplet/nuclear area B-score, replicate 1 = 7.87.
MED26 [DRSC17126] scored droplet/nuclear area B-score, replicate 1 = -0.00559.
Against MED26 [DRSC17147], the values are droplet/nuclear area B-score, replicate 1 = 0.392.
Knock-down of MED26 [DRSC17148] came out at: droplet/nuclear area B-score, replicate 1 = -1.49.

Laid out differently: entries from further up.
| predicted target | amplicon | droplet/nuclear area B-score, replicate 1 |
| --- | --- | --- |
| Wdr92 | DRSC10187 | 0.466 |
| Rbf | DRSC18704 | -1.37 |
| Cyp6t3 | DRSC07388 | 0.0106 |
| Gug | DRSC11179 | 0.0179 |
